Reference: the supplement of paper PMC7824004
The other results are listed elsewhere or left out. The data scatter; read single values as rough.

system: Candida albicans SN425; test: biofilm OD600 B-score; higher = more biofilm (less inhibition); settings: 10 µM; assay detail: High-throughput adherence inhibition optical density biofilm assay with C. albicans SN425 in RPMI-1640/MOPS pH 7.0, 384-well plates. …
Experimental: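 High-throughput adherence inhibition optical density biofilm assay with C. albicans SN425 in RPMI-1640/MOPS pH 7.0, 384-well plates. Compound (10 µM) was present only during the 90 min adherence step, then washed out, and the biofilm grew 24 h without compound. Biofilm was read as OD600 after removing the media. Scores are the difference from the mean in standard deviations and the plate B-score.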

| Compound | biofilm OD600 B-score |
| --- | --- |
| O=C(c1cccs1)N1CCN(c2ncccn2)CC1 | -1.18 |
| NS(=O)(=O)c1ccc(CNC(=O)CSc2ccccc2)cc1 | -3.34 |
| Cc1cc(Br)ccc1OCCN1CCN(C)CC1 | -0.562 |
| CC1CCCN(C(=O)C(C)Oc2ccccc2)C1 (stereo not given) | -0.57 |
| Cc1cc(=O)n(C)c(=O)n1CCCCO | 0.732 |
| CCOc1ccccc1OCCN1CC(C)CC(C)C1 (stereo not given) | 1.17 |
| NCCSC12CC3CC(CC(C3)C1)C2 | 0.555 |
| C=CCOc1ccccc1CN1CCCN(C)CC1 | 1.4 |
| COc1cc(OC)cc(C(=O)Nc2ccccc2NC(C)=O)c1 | -1.25 |
| COc1nc(N=C(N)N)nc2ccc(C)cc12 | 0.158 |
| O=C(NCC(=O)N1CCOCC1)C1CCCCC1 | 0.474 |
| O=C(NCCC1=CCCCC1)c1ccncc1 | -0.267 |
| CC(C)c1ccc(C(=O)NCCCN2CCOCC2)cc1 | 3 |
| CC(=O)Nc1ccc(Cl)c(C(N)=O)c1 | -0.672 |
| OCC1CCCCCN1 (stereo not given) | 2.32 |
| O=C(c1ccc(S(=O)(=O)N2CCCC2)cc1)N1CCCCC1 | 0.247 |
| Cc1ccc(F)c(NC(=O)C2CCCCC2C(=O)O)c1 (stereo not given) | 0.0176 |
| COc1ccc(CCNC(=O)c2cccnc2)cc1 | 0.0452 |
| CC(C)(O)C#CCN1CCCCC1 | -1.91 |
| Cc1ccc(C(=O)CSc2nnc(N)s2)c(C)c1 | 0.0843 |

As entered above:
biofilm OD600 B-score with Cc1ccc(F)c(NC(=O)C2CCCCC2C(=O)O)c1 (stereo not given) reads 0.0176
biofilm OD600 B-score with COc1nc(N=C(N)N)nc2ccc(C)cc12 reads 0.158
biofilm OD600 B-score with O=C(c1ccc(S(=O)(=O)N2CCCC2)cc1)N1CCCCC1 reads 0.247

Next part:

| Compound | biofilm OD600 B-score |
| --- | --- |
| O=C(Nc1ccc2c(c1)OCCO2)c1cnccn1 | 1.04 |
| O=C(Nc1ccccc1)Nc1ccc(C(=O)N2CCOCC2)cc1 | -4.28 |
| Cc1ccc(S(=O)(=O)Nc2ccccc2CNc2ccccc2)cc1 | 0.144 |
| Cc1ccc(C(=O)NCCCn2ccnc2)o1 | -0.955 |
| CC(=O)Nc1ccccc1NC(=O)c1cccc(F)c1 | -1.1 |
| Cc1sc2nc(SCC(=O)N3CCN(CCO)CC3)[nH]c(=O)c2c1C | -1.53 |
| CC(=O)c1ccc(Oc2ccc(N)cc2)cc1 | 1.07 |
| CCOc1ccc(NS(=O)(=O)c2cc(C(=O)O)ccc2OC)cc1 | -3.24 |
| c1ccc(Nc2nc(-c3ccccn3)cs2)nc1 | 7.62 |
| O=C(c1ccc(S(=O)(=O)c2ccccc2)cc1)N1CCOCC1 | 0.17 |
| Cc1cc(C)n(S(=O)(=O)/C=C/c2ccccc2)n1 | 3.91 |
| Cc1onc(-c2ccccc2)c1C(=O)N1CCCCCC1 | -0.484 |
| C=CCNc1nc(-c2c(C)nc3ccccn23)cs1 | -0.0119 |
| CC(CCc1ccccc1)NC(=O)c1cccnc1 (stereo not given) | -0.324 |
| COc1ccccc1Cc1nc(-c2ccccn2)no1 | 0.684 |
| CCOC(=O)N1CCN(CC2CC=CCC2)CC1 (stereo not given) | -1.01 |
| NC(=O)C1CCN(C(=O)c2ccc(Br)o2)CC1 | 0.146 |
| COc1cccc(OCC(O)CN(C)C2CCCCC2)c1 (stereo not given) | -1.51 |
| O=C(c1cccc(Cl)c1)N1CCC(C(=O)N2CCN(Cc3ccccc3)CC2)CC1 | 1.1 |
| CN1CCCN(Cc2cccc(Cl)c2)CC1 | -0.778 |
